Among the data in article PMC7819943, “Rice protein-binding microarrays: a tool to detect cis-acting elements near promoter regions in rice” are binding signal values, retold here.

This is one part of the list.

The target of the assay is T1, OsSMF1 (Oryza sativa, UniProt Q6ZLB0 1-436).
T1 sequence: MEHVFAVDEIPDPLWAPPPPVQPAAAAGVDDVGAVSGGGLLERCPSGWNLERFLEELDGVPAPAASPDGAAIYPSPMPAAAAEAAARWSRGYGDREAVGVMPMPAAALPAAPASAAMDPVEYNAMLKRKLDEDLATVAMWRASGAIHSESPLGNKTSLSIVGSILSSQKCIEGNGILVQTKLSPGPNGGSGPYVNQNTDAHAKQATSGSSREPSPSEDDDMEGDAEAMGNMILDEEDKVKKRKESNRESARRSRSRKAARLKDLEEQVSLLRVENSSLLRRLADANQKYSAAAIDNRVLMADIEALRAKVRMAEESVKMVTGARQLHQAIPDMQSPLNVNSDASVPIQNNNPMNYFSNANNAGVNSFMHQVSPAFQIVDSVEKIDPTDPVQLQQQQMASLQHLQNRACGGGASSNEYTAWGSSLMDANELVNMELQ
Description: protein-binding microarray (RPBM); PBS, 2% BSA, 51.3 ng/ul salmon testes DNA, 50 uM zinc acetate, 200 nM TF, 25 C, 1 h; high values mean tight binding. Conditions: protein: recombinant; tags: N-terminal polyhistidine and DsRed monomer fusion (pET32a); chain copies: 2; label: CyDye5-dUTP incorporated in the synthesized complementary strand; 3' TTTTT single-stranded linker to array surface; dsDNA, one strand shown. A digest of the protocol:
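Polyhistidine-tagged DsRed fusions of transcription factors, joined at the N-terminus, were expressed in E. coli BL21-CodonPlus and isolated on Ni–NTA. They were incubated at 200 nM for 1 h at 25 °C on a custom Agilent array, double-stranded and BSA-blocked, in PBS with 2% BSA, salmon testes DNA and 50 µM zinc acetate. The binding signal is per-feature fluorescence intensity (arbitrary units) read on an Axon 4000B scanner after washing.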
In the case of “CACATTTAAGGTACGTGATGCATAGGACACAGGGTAAAGTCGGAGTCACCTAGTGCAG”, the binding signal was 3280 fluorescence intensity (a.u.).

For “CGAAGAGGGTGGCACGGGTACGACGGTGCTCGCCGGCGGCCGGAGTCACCTAGTGCAG”, the binding signal is 35200 fluorescence intensity (a.u.).

Take “CATAGCCTTTTGCATATGCGTCAAGCGTCTATACGATTCGCGGAGTCACCTAGTGCAG”: the binding signal was 3900 fluorescence intensity (a.u.).

Regarding “CTCGTTTACGAGGGACGGCTGCAGGGTACTGACCGCGCGTCGGAGTCACCTAGTGCAG”, the binding signal was 3270 fluorescence intensity (a.u.).

As for “TCTAGAACCTTCCGGAGATCTCTGGAACCGCGTCTCCAACCGGAGTCACCTAGTGCAG”, the binding signal was 3710 fluorescence intensity (a.u.).

As to “TTTAGAAATATTATTACATGTCACAGTCCCGGTAACAACACGGAGTCACCTAGTGCAG”, the binding signal is 3160 fluorescence intensity (a.u.).

“GTTAATTACCCCGGTGTCACTTTCAGTCACCATCACCACTCGGAGTCACCTAGTGCAG”: the binding signal was 4920 fluorescence intensity (a.u.).

Regarding “CCTGCAGCCAGAGCTGCATTTGCTGGGGATTTATACTAGTCGGAGTCACCTAGTGCAG”, the binding signal is 3540 fluorescence intensity (a.u.).

On to “GAATCTCGTACCTGCTCCAGTAGTCGTGTCAATTTGGAAACGGAGTCACCTAGTGCAG”, for which the binding signal was 3900 fluorescence intensity (a.u.).

Turning to “AATGGCGTCACGGAAGGAAGACGAATCGATACCGCTGACTCGGAGTCACCTAGTGCAG”, the binding signal was 3840 fluorescence intensity (a.u.).

In the case of “ATGCTGTCGTACTTCCTATTTGTGACTAATCAGTTGTTTGCGGAGTCACCTAGTGCAG”, the binding signal is 4520 fluorescence intensity (a.u.).

Turning to “TTTCCTTGGAGAATCCAGATCAGCTTCCTAATCACCCTCACGGAGTCACCTAGTGCAG”, the binding signal is 4040 fluorescence intensity (a.u.).

In the case of “TGCAAGGTTGCCACCAATTGACGAACAAGTTATTAGCATGCGGAGTCACCTAGTGCAG”, the binding signal is 3430 fluorescence intensity (a.u.).

As to “ATTCTTTGCTTCTTGGTGCTTCCATGTCACCCTACTTTATCGGAGTCACCTAGTGCAG”, the binding signal was 5200 fluorescence intensity (a.u.).

Consider “GGACGTCTTTAGACTCTAGGTCTACGTCTATGATGTGGATCGGAGTCACCTAGTGCAG”, for which the binding signal was 4450 fluorescence intensity (a.u.).

For the sequence “CTGCGACTGTCGCGGCCATGGCGTCCACCATTCATCATCACGGAGTCACCTAGTGCAG”, the binding signal is 3530 fluorescence intensity (a.u.).

Consider “CATCCGGTGACTCGGCGCAGCCATTATCCGCCGCCGCCGCCGGAGTCACCTAGTGCAG”, for which the binding signal was 5420 fluorescence intensity (a.u.).

In the case of “TAAACTTTGGGTCTATATACTACTACCTCCGTCCCATAAACGGAGTCACCTAGTGCAG”, the binding signal was 37500 fluorescence intensity (a.u.).

In the case of “CGTGCCCGTCCCGTCCTCCTCTCCTCTCCTCACCGTCACTCGGAGTCACCTAGTGCAG”, the binding signal is 4600 fluorescence intensity (a.u.).

As for “TGAATATGCAAGTTAAGGGACATGTTATATATGGTATTGTCGGAGTCACCTAGTGCAG”, the binding signal is 3240 fluorescence intensity (a.u.).

Take “TCCCAATTCCGCCGCCAATTTCCGGTGCCGACGAGGAGTCCGGAGTCACCTAGTGCAG”: the binding signal is 11200 fluorescence intensity (a.u.).

As for “CATACCCTCAGCCACCATTCCACGTCTAACTATATAATATCGGAGTCACCTAGTGCAG”, the binding signal is 4100 fluorescence intensity (a.u.).

“GGAAGGAGACTGCTTGGTCACTAATTTAATCTGCTACTACCGGAGTCACCTAGTGCAG”: the binding signal is 3140 fluorescence intensity (a.u.).

For the sequence “ATTCCCACCCGTGGCTCGTCGCCGCCTCCGCCTCCGCTCCCGGAGTCACCTAGTGCAG”, the binding signal is 3560 fluorescence intensity (a.u.).

Consider “GCCGCCGCGGCGGGAGGGTCTCCGGCGAGGTCAAGGCCCCCGGAGTCACCTAGTGCAG”, for which the binding signal was 30800 fluorescence intensity (a.u.).

Regarding “TCTGGCAGTTCCCTTCGGTCAGTTCGGACTTCCGACGTAGCGGAGTCACCTAGTGCAG”, the binding signal is 3170 fluorescence intensity (a.u.).

Consider “GGCGGCAGACGGCGCGGTCGACCCGCCGTCTGCCACGTCACGGAGTCACCTAGTGCAG”, for which the binding signal was 25500 fluorescence intensity (a.u.).

Take “ATTAACTTGTCCTCGCTCACCAAGGTGCCCACGTCGCTGCCGGAGTCACCTAGTGCAG”: the binding signal is 3520 fluorescence intensity (a.u.).

“ATCACTGGTGAGGCAAGCTATGCTGCCATTTATCCCTGGGCGGAGTCACCTAGTGCAG”: the binding signal is 31200 fluorescence intensity (a.u.).

Regarding “TCCCAATTGACTAGAGGATGCTTCAGAGATGAAAACATGGCGGAGTCACCTAGTGCAG”, the binding signal was 3190 fluorescence intensity (a.u.).

On to “ATCATGGCCGATCTCGCACGGTGGACGTCGCTGACAGGTGCGGAGTCACCTAGTGCAG”, for which the binding signal was 4270 fluorescence intensity (a.u.).

With “TCGACATAAGGAGGACGAGCGCCGCGTCGTGACGGATGCCCGGAGTCACCTAGTGCAG”, the binding signal is 3230 fluorescence intensity (a.u.).

Consider “ATGTTTCTAATTTCCCTAGATTCAAGTGACACGTTGCTGACGGAGTCACCTAGTGCAG”, for which the binding signal is 7470 fluorescence intensity (a.u.).

“AACTTAATTATATAGTTTAACATCATCATATTTATATTTGCGGAGTCACCTAGTGCAG”: the binding signal is 18500 fluorescence intensity (a.u.).

Consider “ACTTCCAGGAAAGTACCTCTCCCTGACGTGGGCTTAGATTCGGAGTCACCTAGTGCAG”, for which the binding signal is 9750 fluorescence intensity (a.u.).

“AAAACGACCGGTTTTGACGTAAATCCACAAGGCGTTATGACGGAGTCACCTAGTGCAG”: the binding signal was 58400 fluorescence intensity (a.u.).

For the sequence “AATCAACTTGACGTGGAGATGAAATCTCCTTTCCTGTCTTCGGAGTCACCTAGTGCAG”, the binding signal was 5600 fluorescence intensity (a.u.).

In the case of “TCTGGTCCCATCTGTCATACACACATTACGTCTTGTAGTCCGGAGTCACCTAGTGCAG”, the binding signal is 4560 fluorescence intensity (a.u.).

With “ATCGATTAGTGCGTGTTGCTCTTGTACACGACGTCCCGGGCGGAGTCACCTAGTGCAG”, the binding signal is 3300 fluorescence intensity (a.u.).

Regarding “CTTACTTTATTATCCAAAATATTTTAAGCACAACTTTTCACGGAGTCACCTAGTGCAG”, the binding signal is 35600 fluorescence intensity (a.u.).

For “CGTGGTGAAGTGGTGGGGAGTTGCGGGAGGGAGGCATAGGCGGAGTCACCTAGTGCAG”, the binding signal was 3210 fluorescence intensity (a.u.).

With “GACATGGCACGTTGACTTGGTCCAGCTGTGCTGACGTGGCCGGAGTCACCTAGTGCAG”, the binding signal is 36000 fluorescence intensity (a.u.).
